# Results as given in paper doi:10.1101/495762 (bioRxiv, 2018).
# Read-outs that look alike come from different tables or passages of the source. These are yes or no findings as the source states them, for the method shown. In cells and extracts the contact can be indirect. Some results given as binding are weak or reduced against the parent protein; the word gives no strength. For some of these results: Where a sequence is shown, tags or fusion partners need not be part of it.
# T1: Smc3(R1222C) (S. cerevisiae) (UniProt P47037)
# T1 sequence: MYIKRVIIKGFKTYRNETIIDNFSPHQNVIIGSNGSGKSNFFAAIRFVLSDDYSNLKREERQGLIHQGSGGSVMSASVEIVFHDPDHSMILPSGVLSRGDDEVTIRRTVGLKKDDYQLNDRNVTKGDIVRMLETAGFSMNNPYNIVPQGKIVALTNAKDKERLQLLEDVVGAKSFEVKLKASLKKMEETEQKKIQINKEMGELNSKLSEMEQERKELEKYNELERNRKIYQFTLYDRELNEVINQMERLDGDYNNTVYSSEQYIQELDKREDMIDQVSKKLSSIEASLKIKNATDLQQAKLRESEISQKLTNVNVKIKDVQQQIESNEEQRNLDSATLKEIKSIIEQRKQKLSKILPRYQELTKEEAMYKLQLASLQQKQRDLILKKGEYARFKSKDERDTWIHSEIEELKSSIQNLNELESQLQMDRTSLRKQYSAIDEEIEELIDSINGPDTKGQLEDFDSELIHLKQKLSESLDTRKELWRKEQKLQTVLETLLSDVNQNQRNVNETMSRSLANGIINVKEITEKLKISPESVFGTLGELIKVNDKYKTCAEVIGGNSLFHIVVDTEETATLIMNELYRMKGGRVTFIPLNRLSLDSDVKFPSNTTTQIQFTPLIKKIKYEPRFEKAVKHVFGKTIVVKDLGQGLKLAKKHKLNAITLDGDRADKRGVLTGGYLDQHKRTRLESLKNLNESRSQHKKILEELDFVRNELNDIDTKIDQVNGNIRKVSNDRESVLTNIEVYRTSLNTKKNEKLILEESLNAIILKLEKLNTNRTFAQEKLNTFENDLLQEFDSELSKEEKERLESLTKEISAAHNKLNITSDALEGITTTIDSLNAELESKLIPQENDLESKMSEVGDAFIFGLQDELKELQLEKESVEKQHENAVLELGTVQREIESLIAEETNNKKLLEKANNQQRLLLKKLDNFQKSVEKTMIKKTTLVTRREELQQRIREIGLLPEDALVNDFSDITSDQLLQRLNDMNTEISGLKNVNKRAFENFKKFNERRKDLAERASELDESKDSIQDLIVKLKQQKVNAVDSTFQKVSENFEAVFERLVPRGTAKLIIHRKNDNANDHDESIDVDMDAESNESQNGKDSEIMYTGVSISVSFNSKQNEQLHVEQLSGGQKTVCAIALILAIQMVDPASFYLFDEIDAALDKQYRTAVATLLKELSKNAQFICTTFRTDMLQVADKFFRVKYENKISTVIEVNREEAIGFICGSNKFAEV
# T2: Smc3(R1222C)-PK6 (S. cerevisiae) (UniProt P47037)
# T2 sequence: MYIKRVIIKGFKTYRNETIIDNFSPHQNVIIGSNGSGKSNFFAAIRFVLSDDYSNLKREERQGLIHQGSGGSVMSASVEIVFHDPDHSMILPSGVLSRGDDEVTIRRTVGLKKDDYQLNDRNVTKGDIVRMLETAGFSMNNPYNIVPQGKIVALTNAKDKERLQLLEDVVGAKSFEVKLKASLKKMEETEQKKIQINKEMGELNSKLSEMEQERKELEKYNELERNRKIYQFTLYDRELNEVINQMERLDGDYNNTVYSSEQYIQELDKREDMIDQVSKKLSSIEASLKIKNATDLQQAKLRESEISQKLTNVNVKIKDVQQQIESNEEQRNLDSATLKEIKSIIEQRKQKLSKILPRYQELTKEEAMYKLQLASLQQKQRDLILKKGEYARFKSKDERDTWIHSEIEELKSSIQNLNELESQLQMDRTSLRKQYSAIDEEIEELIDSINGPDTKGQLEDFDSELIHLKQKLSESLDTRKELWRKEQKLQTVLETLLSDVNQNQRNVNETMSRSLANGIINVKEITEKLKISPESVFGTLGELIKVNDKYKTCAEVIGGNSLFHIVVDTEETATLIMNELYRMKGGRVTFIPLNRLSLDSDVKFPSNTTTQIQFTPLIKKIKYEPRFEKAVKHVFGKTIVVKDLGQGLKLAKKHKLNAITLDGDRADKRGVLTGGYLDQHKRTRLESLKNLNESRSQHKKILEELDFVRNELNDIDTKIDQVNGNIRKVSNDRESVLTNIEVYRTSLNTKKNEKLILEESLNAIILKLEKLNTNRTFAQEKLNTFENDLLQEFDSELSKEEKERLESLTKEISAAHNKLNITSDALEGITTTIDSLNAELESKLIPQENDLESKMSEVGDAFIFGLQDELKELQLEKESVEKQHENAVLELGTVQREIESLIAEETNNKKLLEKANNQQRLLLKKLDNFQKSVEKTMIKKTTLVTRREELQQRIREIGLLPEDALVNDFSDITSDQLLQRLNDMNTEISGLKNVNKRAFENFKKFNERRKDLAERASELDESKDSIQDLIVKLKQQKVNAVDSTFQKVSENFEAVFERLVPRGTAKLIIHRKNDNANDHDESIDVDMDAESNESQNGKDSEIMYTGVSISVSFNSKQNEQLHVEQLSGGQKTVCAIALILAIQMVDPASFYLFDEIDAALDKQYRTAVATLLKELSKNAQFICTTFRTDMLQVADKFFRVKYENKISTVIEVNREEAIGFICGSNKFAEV
# T3: Smc3(K160C, E570C) (S. cerevisiae) (UniProt P47037)
# T3 sequence: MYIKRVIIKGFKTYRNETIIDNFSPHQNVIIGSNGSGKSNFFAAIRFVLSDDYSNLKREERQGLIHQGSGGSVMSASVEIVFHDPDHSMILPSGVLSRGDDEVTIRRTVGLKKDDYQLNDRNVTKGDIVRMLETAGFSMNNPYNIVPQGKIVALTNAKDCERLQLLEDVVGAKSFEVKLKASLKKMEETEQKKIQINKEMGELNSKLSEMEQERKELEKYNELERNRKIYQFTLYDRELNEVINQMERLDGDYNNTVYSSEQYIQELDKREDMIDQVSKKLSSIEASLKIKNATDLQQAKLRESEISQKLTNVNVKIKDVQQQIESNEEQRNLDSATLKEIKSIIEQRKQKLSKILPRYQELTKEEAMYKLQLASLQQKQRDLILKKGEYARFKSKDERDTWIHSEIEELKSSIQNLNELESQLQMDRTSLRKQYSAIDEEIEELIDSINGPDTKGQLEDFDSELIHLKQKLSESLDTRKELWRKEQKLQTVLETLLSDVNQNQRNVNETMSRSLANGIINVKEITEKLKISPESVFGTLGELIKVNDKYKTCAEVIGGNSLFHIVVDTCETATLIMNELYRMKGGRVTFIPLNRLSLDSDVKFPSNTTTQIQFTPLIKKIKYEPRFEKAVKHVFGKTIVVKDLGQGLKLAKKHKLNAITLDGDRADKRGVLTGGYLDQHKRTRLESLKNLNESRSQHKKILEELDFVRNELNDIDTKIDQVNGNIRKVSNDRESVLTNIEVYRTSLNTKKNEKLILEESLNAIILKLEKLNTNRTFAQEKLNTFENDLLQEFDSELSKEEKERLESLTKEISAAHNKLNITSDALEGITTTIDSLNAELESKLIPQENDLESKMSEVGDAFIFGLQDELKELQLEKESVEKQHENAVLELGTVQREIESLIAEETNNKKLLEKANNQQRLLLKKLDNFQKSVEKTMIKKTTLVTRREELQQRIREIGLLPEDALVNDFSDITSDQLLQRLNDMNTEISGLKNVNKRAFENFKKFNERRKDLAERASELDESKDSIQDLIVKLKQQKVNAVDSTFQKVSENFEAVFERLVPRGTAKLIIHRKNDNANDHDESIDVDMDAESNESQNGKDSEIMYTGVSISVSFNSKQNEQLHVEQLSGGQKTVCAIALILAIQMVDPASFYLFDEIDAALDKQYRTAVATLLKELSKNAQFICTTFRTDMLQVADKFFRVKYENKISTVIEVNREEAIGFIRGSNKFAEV
# Experiments:
# Experiment in all cases: cross-linking
# [1] = biological target: T1, Smc3(R1222C) (S. cerevisiae)
# [2] = biological target: T2, Smc3(R1222C)-PK6 (S. cerevisiae)
# [3] = biological target: T1, Smc3(R1222C) (S. cerevisiae); remark: listed apart in the source
# [4] = biological target: T3, Smc3(K160C, E570C) (S. cerevisiae)
binding [1],binding [2],binding [3],binding [4],Binder
binds,binds,binds,,"Smc1(N1192C)-HA6 (natural protein, S. cerevisiae, UniProt P32908 1-1225, looked up) MGRLVGLELSNFKSYRGVTKVGFGESNFTSIIGPNGSGKSNMMDAISFVLGVRSNHLRSNILKDLIYRGVLNDENSDDYDNEGAASSNPQSAYVKAFYQKGNKLVELMRIISRNGDTSYKIDGKTVSYKDYSIFLENENILIKAKNFLVFQGDVEQIAAQSPVELSRMFEEVSGSIQYKKEYEELKEKIEKLSKSATESIKNRRRIHGELKTYKEGINKNEEYRKQLDKKNELQKFQALWQLYHLEQQKEELTDKLSALNSEISSLKGKINNEMKSLQRSKSSFVKESAVISKQKSKLDYIFKDKEKLVSDLRLIKVPQQAAGKRISHIEKRIESLQKDLQRQKTYVERFETQLKVVTRSKEAFEEEIKQSARNYDKFKLNENDLKTYNCLHEKYLTEGGSILEEKIAVLNNDKREIQEELERFNKRADISKRRITEELSITGEKLDTQLNDLRVSLNEKNALHTERLHELKKLQSDIESANNQEYDLNFKLRETLVKIDDLSANQRETMKERKLRENIAMLKRFFPGVKGLVHDLCHPKKEKYGLAVSTILGKNFDSVIVENLTVAQECIAFLKKQRAGTASFIPLDTIETELPTLSLPDSQDYILSINAIDYEPEYEKAMQYVCGDSIICNTLNIAKDLKWKKGIRGKLVTIEGALIHKAGLMTGGISGDANNRWDKEEYQSLMSLKDKLLIQIDELSNGQRSNSIRAREVENSVSLLNSDIANLRTQVTQQKRSLDENRLEIKYHNDLIEKEIQPKITELKKKLDDLENTKDNLVKEKEALQNNIFKEFTSKIGFTIKEYENHSGELMRQQSKELQQLQKQILTVENKLQFETDRLSTTQRRYEKAQKDLENAQVEMKSLEEQEYAIEMKIGSIESKLEEHKNHLDELQKKFVTKQSELNSSEDILEDMNSNLQVLKRERDGIKEDIEKFDLERVTALKNCKISNINIPISSETTIDDLPISSTDNEAITISNSIDINYKGLPKKYKENNTDSARKELEQKIHEVEEILNELQPNARALERYDEAEGRFEVINNETEQLKAEEKKILNQFLKIKKKRKELFEKTFDYVSDHLDAIYRELTKNPNSNVELAGGNASLTIEDEDEPFNAGIKYHATPPLKRFKDMEYLSGGEKTVAALALLFAINSYQPSPFFVLDEVDAALDITNVQRIAAYIRRHRNPDLQFIVISLKCTMFEKSDALVGVYRQQQENSSKIITLDLSNYAE"
,,,binds,"Smc1(S161C, K639C)-HA (protein, UniProt P32908 1-1225) MGRLVGLELSNFKSYRGVTKVGFGESNFTSIIGPNGSGKSNMMDAISFVLGVRSNHLRSNILKDLIYRGVLNDENSDDYDNEGAASSNPQSAYVKAFYQKGNKLVELMRIISRNGDTSYKIDGKTVSYKDYSIFLENENILIKAKNFLVFQGDVEQIAAQCPVELSRMFEEVSGSIQYKKEYEELKEKIEKLSKSATESIKNRRRIHGELKTYKEGINKNEEYRKQLDKKNELQKFQALWQLYHLEQQKEELTDKLSALNSEISSLKGKINNEMKSLQRSKSSFVKESAVISKQKSKLDYIFKDKEKLVSDLRLIKVPQQAAGKRISHIEKRIESLQKDLQRQKTYVERFETQLKVVTRSKEAFEEEIKQSARNYDKFKLNENDLKTYNCLHEKYLTEGGSILEEKIAVLNNDKREIQEELERFNKRADISKRRITEELSITGEKLDTQLNDLRVSLNEKNALHTERLHELKKLQSDIESANNQEYDLNFKLRETLVKIDDLSANQRETMKERKLRENIAMLKRFFPGVKGLVHDLCHPKKEKYGLAVSTILGKNFDSVIVENLTVAQECIAFLKKQRAGTASFIPLDTIETELPTLSLPDSQDYILSINAIDYEPEYEKAMQYVCGDSIICNTLNIACDLKWKKGIRGKLVTIEGALIHKAGLMTGGISGDANNRWDKEEYQSLMSLKDKLLIQIDELSNGQRSNSIRAREVENSVSLLNSDIANLRTQVTQQKRSLDENRLEIKYHNDLIEKEIQPKITELKKKLDDLENTKDNLVKEKEALQNNIFKEFTSKIGFTIKEYENHSGELMRQQSKELQQLQKQILTVENKLQFETDRLSTTQRRYEKAQKDLENAQVEMKSLEEQEYAIEMKIGSIESKLEEHKNHLDELQKKFVTKQSELNSSEDILEDMNSNLQVLKRERDGIKEDIEKFDLERVTALKNCKISNINIPISSETTIDDLPISSTDNEAITISNSIDINYKGLPKKYKENNTDSARKELEQKIHEVEEILNELQPNARALERYDEAEGRFEVINNETEQLKAEEKKILNQFLKIKKKRKELFEKTFDYVSDHLDAIYRELTKNPNSNVELAGGNASLTIEDEDEPFNAGIKYHATPPLKRFKDMEYLSGGEKTVAALALLFAINSYQPSPFFVLDEVDAALDITNVQRIAAYIRRHRNPDLQFIVISLKNTMFEKSDALVGVYRQQQENSSKIITLDLSNYAE"
